Results as given in the supplement of paper PMC12823440, “Inhibitors supercharge kinase turnover through native proteolytic circuits” (Nature, 2025).
The list shows a part of the results. Hit calls seldom repeat between salt and free forms of one compound.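 In K562 cells expressing nanoluciferase-fused kinases, luminescence was recorded at 4 h intervals between 2 and 18 h, normalized as percent of control with DMSO at 100% and a positive control at 0%. A significant (2 sigma) signal drop marks a time point as decreased. The authors' rule for a hit is not shown and takes in more than the number of time points.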

biological target: MAP2K2 (UniProt P36507); experiment: kinase-Nluc reporter destabilization hit call (1 = scored as downregulated) (binary); higher = compound decreases kinase abundance; conditions: K562; 2-18 h

kinase-Nluc reporter destabilization hit call, inactive:
O=C(O)c1cc(N(Cc2ccccc2O)Cc2ccccc2O)ccc1O [Lavendustin B] (10 µM) 0, Cc1cnc(NC2CCOCC2)nc1-n1cnc(C(=O)N[C@H](CN)c2cc(F)cc(Cl)c2)c1 (10 µM) 0, Cn1ncc2cc(-c3cnc(N)c(Cl)c3N3CCC4(CCNC4=O)CC3)ccc21 (10 µM) 0, CC(C)c1cccc(C(C)C)c1N1C(=O)c2ccc(N)cc2C1=O (2.5 µM) 0, CC[C@@](C)(Nc1ccnc(-c2c[nH]c3ncccc23)n1)C(=O)NCC(F)(F)F [Decernotinib] (10 µM) 0, NC1=NCCN1CC(=O)O [Cyclocreatine] (10 µM) 0, Nc1c(C(=O)NCc2ccc(C(=O)NCCCC3CCCCC3)cc2)cnn1-c1ccccc1 (2.5 µM) 0, C[C@H](Nc1ncnc2nc[nH]c12)c1cc2cccc(Cl)c2c(=O)n1-c1ccccc1 [Duvelisib] (10 µM) 0, Cc1cc(Nc2nc(CC3(C(=O)O)CCN(C(=O)c4cccc(Cl)c4Cl)CC3)ccc2F)n[nH]1 (10 µM) 0, C[C@@H]1O[C@@H](O[C@@H]2[C@@H](O)[C@H](OCCc3ccc(O)c(O)c3)O[C@H](CO)[C@H]2OC(=O)/C=C/c2ccc(O)c(O)c2)[C@H](O)[C@H](O)[C@H]1O [Verbascoside] (10 µM) 0, O=C1/C(=C\c2ccc(Cl)cc2)C=C(c2ccccc2)N1c1ccc(O)cc1 (2.5 µM) 0, Nc1nccc(Oc2ccc(NC(=O)c3c[nH]cc(-c4ccc(F)cc4)c3=O)cc2F)c1Cl (10 µM) 0, COc1ccc(-c2c(C)nn3c(NCCN4CCOCC4)cc(C)nc23)cc1OC (10 µM) 0, O=C1NC(=O)C(c2cnc3ccccn23)=C1c1cn2c3c(cc(F)cc13)CNCC2 [GSK-3 inhibitor 1] (2.5 µM) 0, CCCCCCCC/C=C\CCCCCCCCCCCC(=O)O [Erucic acid] (10 µM) 0, O=C(Nc1nc2ccccc2[nH]1)c1cccc([N+](=O)[O-])c1 [IRAK-4 protein kinase inhibitor 2] (10 µM) 0, Cc1cccc(-c2[nH]c(C(C)(C)C)nc2-c2ccc3nccnc3c2)n1 (10 µM) 0, C[C@@H]1CC(=O)c2c(ccc3c2C(=O)c2cccc(O)c2C3=O)C1 [Ochromycinone] (10 µM) 0, CN1C(=O)[C@@H](NC(=O)c2n[nH]c(Cc3ccccc3)n2)COc2ccccc21 (10 µM) 0, CCc1cccc(CC)c1NC(=O)N1Cc2[nH]nc(NC(=O)c3ccc(N4CCN(C)CC4)cc3)c2C1 (2.5 µM) 0, COc1ccc(N=Nc2c(N)n[nH]c2N)cc1 (10 µM) 0, Cc1ccc(NC(=O)c2ccnc(C(F)(F)F)c2)cc1-c1cc(OCCO)nc(N2CCOCC2)c1 (10 µM) 0, CC(C)(O)[C@H]1CC[C@H](Nc2ccc3ncc(-c4cccc(C(F)(F)F)c4)n3n2)CC1 (10 µM) 0, CCn1c(=O)c(-c2cc[nH]n2)cc2c(C)nc(N)nc21 [Voxtalisib] (10 µM) 0, C[C@H](NC(=O)[C@H]1NCC[C@@H]1O)c1ccc(-c2noc(CCC3CCCC3)n2)cc1 (10 µM) 0, O=C1O[C@H]([C@@H](O)CO)C(O)=C1OP(=O)(O)O [2-Phospho-L-ascorbic acid (trisodium)] (10 µM) 0, Cn1cnc([N+](=O)[O-])c1C[N+](C)(C)C/C=C/C(=O)Nc1cc2c(Nc3ccc(Cl)c(Br)c3)ncnc2cn1 [Tarloxotinib (bromide)] (10 µM) 0, CC1(C)Cc2c(sc(NC(=S)NC(=O)c3ccccc3)c2C(=O)O)CO1 (10 µM) 0, CCCCCCCCCCCCCCCCOP(=O)([O-])OCC[N+](C)(C)C [Miltefosine] (10 µM) 0, N#CC(c1ccnc(OCc2ccc(CN3CCOCC3)cc2)n1)c1nc2ccccc2s1 (stereo not drawn) [Bentamapimod] (2.5 µM) 0, Cc1cnc(-c2ccc(-c3ccc(NC(=O)Nc4cccc(C(F)(F)F)c4)cc3F)c3c2C(=O)NC3)[nH]1 (10 µM) 0, CC(C)=CC(=O)O[C@H]1Cc2cc3ccc(=O)oc3cc2OC1(C)C [Decursin] (10 µM) 0, O=C(N[C@@H](C1CC1)C(F)(F)F)c1cc(-c2cnn3cc(-c4ccc(F)cc4)cnc23)cs1 (10 µM) 0, CNc1cc(Nc2cccn(-c3ccccn3)c2=O)nn2c(C(=O)N[C@@H]3C[C@@H]3F)cnc12 (2.5 µM) 0, CS(=O)(=O)c1ccc(-c2cnc(N)c(-c3ccc(C(F)(F)F)nc3)c2)cc1 (10 µM) 0, CN(c1ccc(NC(=O)Nc2ccc(OC(F)(F)F)cc2)cc1)c1ccnc(Nc2cccc(S(N)(=O)=O)c2)n1 (2.5 µM) 0, Cc1ccc2c(Nc3cccc(Cl)c3F)nccc2c1NC(=O)c1csc2c(N)ncnc12 [Belvarafenib] (10 µM) 0, COc1nn(C)cc1Nc1nccc(-c2c[nH]c3c(NC(=O)[C@@H](C)N4CCN(C)CC4)cccc23)n1 (10 µM) 0
